# For part of these data: Strings that start with PEPTIDE1 are HELM notation: dots part the residues, brackets hold end groups and non-standard residues.
# System: human red blood cells (hRBC's)
# Experiment: Hemolysis assay
# Format: cell-based
# Details: H50/the MIC of S. aureus
# Description: Freshly drawn human red blood cells (hRBC's) with additive K2 EDTA (spray-dried) were washed with PBS buffer several times and centrifuged at 1000 g for 10 min until a clear supernatant was observed. The hRBC's were resuspended in 1×PBS to get a 5% v/v suspension. Two-fold serial dilutions of γ-AApeptides dissolved in 1×PBS from 250 μg/ml through 1.6 μg/ml were added to a sterile 96-well plate to make up a total volume of 50 μL in each well. Then 50 μL of 5% v/v hRBC solution was added to make up a total volume of 100 μL in each well. The 0% hemolysis point and 100% hemolysis point were determined in 1×PBS and 0.2% Triton-X-100, respectively (Patch et al., 2003). The plate was then incubated at 37° C. for 1 h and centrifuged at 3500 rpm for 10 min. The supernatant (30 μL) was diluted with 100 μL of 1×PBS and absorption was detected by measuring the optical density at 360 nm by Biotek Synergy HT microtiter plate reader. % hemolysis was determined by the following equation: % hemolysis=(Abssample−AbsPBS)/(AbsTriton−AbsPBS)×100 H50 is the concentration of γ-AApeptide amphiphiles at which 50% hemolysis was observed. […] Fluorescence Microscopy
# The sequences shown in FIG. 12 were also evaluated via hemolytic assays. […] The 0% hemolysis point and 100% hemolysis point were determined in 1×PBS and 0.2% Triton-X-100, respectively (Patch et al., 2003). […]
row,Molecule,selectivity
1,CCCCCCCCCCCCCCCC(=O)N[C@@H](CCCCN)CN(CC(N)=O)C(=O)CCCN [Sequence 2],16
2,CCCCCCCC/C=C\CCCCCCCC(=O)N[C@@H](CCCCN)CN(CC(N)=O)C(=O)CCCN [Sequence 10],25

# System: not listed separately
# Experiment: general procedure: Fmoc solid-phase peptide synthesis; Knorr resin; Rink amide resin; DIC/DhbtOH; PyBop/HOBt/DIEA for cyclization
# Details: whole synthesis, based on loading of the resin
row,Molecule,isolated yield
1,"PEPTIDE1{[gF-mp].[gF-mp].[gK-hc].[gK-hc].[gK-hc].[gK-hc].[gF-suc].[am]}$PEPTIDE1,PEPTIDE1,1:R1-7:R3$$$V2.0",6.0%
2,"PEPTIDE1{[gK-hc].[gF-mp].[gK-hc].[gK-hc].[gF-mp].[gK-hc].[gF-suc].[am]}$PEPTIDE1,PEPTIDE1,1:R1-7:R3$$$V2.0",6.5%
3,"PEPTIDE1{[gK-hc].[gK-hc].[gK-hc].[gK-hc].[gK-hc].[gF-suc].[am]}$PEPTIDE1,PEPTIDE1,1:R1-6:R3$$$V2.0",8.6%
4,"PEPTIDE1{[gK-hc].[gK-hc].[gK-hc].[gK-hc].[gK-hc].[gK-hc].[gF-suc].[am]}$PEPTIDE1,PEPTIDE1,1:R1-7:R3$$$V2.0",6.2%
